The record followed here is patent US20160319034A1 (ONCOMED PHARMACEUTICALS, published 2016).

Protein sequences, listed by entry. Tags and fused reporters are not part of them. Lines headed by an entry give the natural chain unless they say otherwise; changes in a name come on top.
UniProt P08581: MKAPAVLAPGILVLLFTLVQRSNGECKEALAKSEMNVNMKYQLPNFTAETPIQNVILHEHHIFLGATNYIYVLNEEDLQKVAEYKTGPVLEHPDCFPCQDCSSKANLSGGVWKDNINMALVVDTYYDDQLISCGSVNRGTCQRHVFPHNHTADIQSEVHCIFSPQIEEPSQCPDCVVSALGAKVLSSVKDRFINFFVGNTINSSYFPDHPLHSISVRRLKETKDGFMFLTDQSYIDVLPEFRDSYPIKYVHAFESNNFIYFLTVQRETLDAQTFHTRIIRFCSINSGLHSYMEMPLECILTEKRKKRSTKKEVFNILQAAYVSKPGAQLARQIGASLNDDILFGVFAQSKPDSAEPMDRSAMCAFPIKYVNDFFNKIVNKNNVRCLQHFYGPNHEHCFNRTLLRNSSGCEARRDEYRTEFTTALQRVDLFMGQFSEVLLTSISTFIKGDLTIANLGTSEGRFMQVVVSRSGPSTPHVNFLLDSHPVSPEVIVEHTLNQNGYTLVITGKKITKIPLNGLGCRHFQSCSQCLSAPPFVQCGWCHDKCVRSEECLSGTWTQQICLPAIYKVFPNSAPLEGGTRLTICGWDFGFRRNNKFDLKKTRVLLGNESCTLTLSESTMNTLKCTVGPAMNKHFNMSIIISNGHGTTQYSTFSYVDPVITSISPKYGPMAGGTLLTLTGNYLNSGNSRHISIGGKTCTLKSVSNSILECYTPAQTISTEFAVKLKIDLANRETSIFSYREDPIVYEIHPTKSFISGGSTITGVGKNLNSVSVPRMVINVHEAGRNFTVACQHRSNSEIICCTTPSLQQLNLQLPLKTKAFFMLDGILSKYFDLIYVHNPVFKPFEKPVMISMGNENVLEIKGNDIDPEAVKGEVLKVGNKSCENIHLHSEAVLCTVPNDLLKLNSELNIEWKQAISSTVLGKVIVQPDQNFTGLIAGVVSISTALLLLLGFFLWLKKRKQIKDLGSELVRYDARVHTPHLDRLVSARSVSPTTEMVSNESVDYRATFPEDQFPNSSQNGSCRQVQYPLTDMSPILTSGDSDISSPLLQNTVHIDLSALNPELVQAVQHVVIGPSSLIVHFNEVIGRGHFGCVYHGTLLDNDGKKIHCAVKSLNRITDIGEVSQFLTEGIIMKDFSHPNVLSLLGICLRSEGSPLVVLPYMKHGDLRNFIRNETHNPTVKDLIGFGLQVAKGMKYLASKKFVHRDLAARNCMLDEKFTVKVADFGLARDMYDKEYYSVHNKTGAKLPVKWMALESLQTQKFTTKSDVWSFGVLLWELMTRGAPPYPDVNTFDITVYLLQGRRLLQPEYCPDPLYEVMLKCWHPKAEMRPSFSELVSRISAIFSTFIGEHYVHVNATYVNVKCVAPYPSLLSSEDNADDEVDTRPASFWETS

Results are given in words; binding and its absence hold for the method and conditions named. Some entries that bind do so weakly or less than the wild type. Tags and fused reporters may be left off the sequences shown.

The target of the assay is human MET (soluble analyte in the Biacore assay) (human) (UniProt P08581). The assay can be described thus: SPR (Biacore 2000). A general note: In SPR one partner is held on a chip, and binding of the other changes the refractive index at the surface.

B1: anti-MET/FZD8-Fc bispecific agent 315B06 (bispecific antibody, human IgG2, kappa)
heavy: QVQLQESGPGLVKPSETLSLTCTVTGTTITASYAWSWIRQPPGKGLEWMGYISYSGGTDYNPSLKSRITISRDTFKNQFSLKLSSVTAADTATYYCARKGAYWGQGTLVTVSSASTKGPSVFPLAPCSRSTSESTAALGCLVKDYFPEPVTVSWNSGALTSGVHTFPAVLQSSGLYSLSSVVTVPSSNFGTQTYTCNVDHKPSNTKVDKTVERKCCVECPPCPAPPVAGPSVFLFPPKPKDTLMISRTPEVTCVVVDVSHEDPEVQFNWYVDGVEVHNAKTKPREEQFNSTFRVVSVLTVVHQDWLNGKEYKCKVSNKGLPAPIEKTISKTKGQPREPQVYTLPPSREKMTKNQVSLTCLVKGFYPSDIAVEWESNGQPENNYKTTPPMLKSDGSFFLYSKLTVDKSRWQQGNVFSCSVMHEALHNHYTQKSLSLSPGK
light: DIVLTQSPATLSASPGEKVTLTCSASSSVSSSYLYWYQQKPGQAPKLLIYSTSNLASGVPARFSGSGSGTSYSLTISSLEPEDFATYYCHQWSSYPYTFGGGTKLEIKRTVAAPSVFIFPPSDEQLKSGTASVVCLLNNFYPREAKVQWKVDNALQSGNSQESVTEQDSKDSTYSLSSTLTLSKADYEKHKVYACEVTHQGLSSPVTKSFNRGEC
chain: ASAKELACQEITVPLCKGIGYNYTYMPNQFNHDTQDEAGLEVHQFWPLVEIQCSPDLKFFLCSMYTPICLEDYKKPLPPCRSVCERAKAGCAPLMRQYGFAWPDRMRCDRLPEQGNPDTLCMDYNRTDLTTTKVDKTVERKSCVECPPCPAPPVAGPSVFLFPPKPKDTLMISRTPEVTCVVVDVSHEDPEVQFNWYVDGVEVHNAKTKPREEQFNSTFRVVSVLTVVHQDWLNGKEYKCKVSNKGLPAPIEKTISKTKGQPREPQVYTLPPSREEMTKNQVSLTCLVEGFYPSDIAVEWESNGQPENNYKTTPPMLDSDGSFFLYSELTVDKSRWQQGNVFSCSVMHEALHNHYTQKSLSLSPGK
notes: Heterodimer with one anti-MET arm (heavy and light chain) and one FZD8-Fc soluble receptor arm; also called bispecific anti-MET/FZD8-Fc agent 315B06; 351B06 [sic]
For the molecule B1, the binding entry is “binds”.

B2: monovalent version of anti-MET antibody 73R009 (antibody, V domains shown)
VH: QVQLQESGPGLVKPSETLSLTCTVTGTTITASYAWSWIRQPPGKGLEWMGYISYSGGTDYNPSLKSRITISRDTFKNQFSLKLSSVTAADTATYYCARKGAYWGQGTLVTVSS
VL: DIVLTQSPATLSASPGEKVTLTCSASSSVSSSYLYWYQQKPGQAPKLLIYSTSNLASGVPARFSGSGSGTSYSLTISSLEPEDFATYYCHQWSSYPYTFGGGTKLEIK
notes: Only the 73R009 variable regions can be tied to this molecule; also called monovalent anti-MET antibody 73R009; monovalent version of 73R009
With B2, the binding result was “binds”.
